Source: ChEMBL document CHEMBL3988442, “University of Dundee, Small-Polar-MMV Screening Library” (2021).

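Viability assay of Plasmodium falciparum sporozoites; the read-out is not stated. The concentration is filed as 10 mM, unlikely as a test dose, so the dose is not known. Higher reads as lower viability (inferred: compounds with an IC50 in retests scored well above the rest). Strong results were mostly tested again. About 34,000 compounds were tested under these conditions; 0.84% (about 280) showed 50% or more at least once.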

Results are given as percent effect. How 0% and 100% were set is not recorded. Most values in the screen are low, and negative values occur. The compounds are a random part of those screened. Two or more numbers in one place are separate tests of the same structure; such repeats can differ widely.

| # | compound | percent effect |
|---|---|---|
| 1 | `O=C(Nc1ccc2c(c1)OCCO2)c1ccc(=O)[nH]n1` | 14.24% |
| 2 | `Cc1cc(=O)[nH]c(NC2CCN(S(=O)(=O)c3ccccc3)CC2)n1` | 2.473% |
| 3 | `O=C(CC1=CCCCC1)Nc1ncn(CC(=O)N2CCCCCC2)n1` | 7.444% |
| 4 | `N#Cc1ccc(F)c(CN2CCCC2Cn2cccn2)c1` (stereo unspecified) | -2.089% |
| 5 | `COCc1nc(C(=O)N2CCCC(n3ccnc3C)C2)cs1` (stereo unspecified) | 6.648% |
| 6 | `CN(C)C(=O)N1CCC(c2nc3ccc(-c4ccccc4)cn3n2)CC1` | 2.997% |
| 7 | `Cc1cc(C[C@@H]2COC[C@@H]2NC(=O)CN2CCCN(C)CC2)on1` | -4.841% |
| 8 | `O=C(O)C(F)(F)F.c1cnc(N2CCOC3(CCN(CC4CCOC4)CC3)C2)nc1` (stereo unspecified) | -3.342% |
| 9 | `COc1ccc(CN(Cc2cncn2C)CC2CCCO2)c(OC)c1.O=C(O)CC(O)(CC(=O)O)C(=O)O` (stereo unspecified) | 2.488% |
| 10 | `Cc1noc(C)c1CN(C)C(=O)NCCOc1ccc(F)cc1F` | -9.091% |
| 11 | `CC(CN1CCC2(CC1)c1nc[nH]c1CCN2S(C)(=O)=O)C(F)(F)F` (stereo unspecified) | -10.97% |
| 12 | `CC(C)(C)N1CCN(C(=O)Nc2cc(C(F)(F)F)c[nH]c2=O)CC1` | 8.558% |
| 13 | `O=C(O)C(F)(F)F.[H][C@]12CCC[C@@]1(COCc1ccccn1)CN(C(=O)N1CCCC1)C2` | -0.5063% |
| 14 | `CC1(C)CCC(CC(=O)O)c2ccccc21` (stereo unspecified) | -17.02% |
| 15 | `O=C(c1ccc(F)cc1F)N1CC[C@H](O)[C@@H](N2CCOCC2)CC1` | -9.894% |
| 16 | `CN1CCN(Cc2cn3c(n2)CN(Cc2ccncc2)CC3)CC1` | 0% |
| 17 | `Cc1cc(CN2CCN(C(=O)NCc3ccoc3)CC2)no1` | 11.58% |
| 18 | `Cn1ccc(CN2CCC(NC(=O)C3CCCCC3)CC2)cc1=O` | 5.438% |
| 19 | `Cc1ccc(OCC(=O)N(C)Cc2ccc(F)cc2)cn1` | -8.457% |
| 20 | `O=C(O)C(F)(F)F.[H][C@@]12COC[C@]1(COCC)CN(Cc1ccc3c(c1)OCO3)C2` | -8.439% |
| 21 | `CCO[C@@H]1CO[C@@]2(CCCN(C(=O)COc3ccccc3OC)C2)C1` | -7.039% |
| 22 | `CCN(C(=O)CCCOc1ccccc1F)c1ccncc1` | -5.299% |
| 23 | `Cc1ccc(C(O)CNC(=O)Nc2cc(C)nn2C)cc1` (stereo unspecified) | 3.461% |
| 24 | `CCc1cccc(NC(=O)CCN2CC=C(c3cnn(C)c3)CC2)c1` | -1.644% |
| 25 | `COc1cccc(CN2CCCC(c3cc(C(N)=O)[nH]n3)C2)c1` (stereo unspecified) | 1.183% |
| 26 | `Cc1nc(-c2ccc(F)cc2)cc(C2CCNCC2)n1` | 11.17% |
| 27 | `CN(C)c1ncc(-c2cncn2CCc2ccc3c(c2)OCCO3)cn1.Cl` | -23.64% & 9.17% & -18.28% |
| 28 | `Cc1cc(C)c(CNC(=O)NCC(O)c2ccc(Cl)cc2)c(=O)[nH]1` (stereo unspecified) | 0.08977% |
| 29 | `[H][C@]12CN(c3ccccn3)CCN1C[C@@H](c1ccccc1)[C@@H]2CO` | 2.392% |
| 30 | `CCC(O)CN1CCN(C(=O)Cc2cc(Cl)ccc2OC)CC1` (stereo unspecified) | 7.644% |
| 31 | `Cc1ccc(NC2CCN(C(=O)c3nccc4ccccc34)CC2)nn1` | -5.037% |
| 32 | `COCCN1CCC(CNC(=O)C2(S(C)(=O)=O)CCCC2)CC1` | -21.69% |
| 33 | `Cn1cc(C2COC3(CCN(C(=O)c4cnccn4)CC3)C2)cn1` (stereo unspecified) | 5.412% |
| 34 | `Cc1nccn1-c1cncc(C2CCCN2Cc2ccccc2)n1` (stereo unspecified) | 21.76% |
| 35 | `CC(=O)NCc1nnc2n1CCN(c1nc(C)nc3sccc13)CC2` | 0.5329% |
| 36 | `CN1CC2(CCCN(Cc3ccccc3OCC(=O)O)C2)OC1=O` (stereo unspecified) | -17.06% & -26.69% |
| 37 | `Cc1c2ncn(CC(=O)N(C)C)c(=O)c2nn1C` | -1.523% |
| 38 | `Cc1ccccc1CN(CC(=O)O)C(=O)COCC1CC1` | -11.23% |
| 39 | `CC(=O)c1sc(Nc2ccc(Cl)cn2)nc1C` | 10.13% |
| 40 | `Fc1ccc(-c2nc(CN3CCCC3Cn3cncn3)co2)cc1F` (stereo unspecified) | 19.45% |
| 41 | `CCn1cc(CN2CCCN(C(=O)c3ccn(C)c(=O)c3)CC2)cn1` | 6.474% |
| 42 | `CC(=O)N1CCC(c2[nH]ncc2S(C)(=O)=O)CC1` | 3.9% |
| 43 | `Cc1cccnc1CN(C)CC1(O)CCCN(CC2CCCCC2)C1=O` (stereo unspecified) | -0.104% |
| 44 | `Cc1nc(C)n(CC2CCCN2CCCOc2ccc(F)cc2)n1` (stereo unspecified) | -12.75% |
| 45 | `Cn1cncc1CN1CCC(O)(Cn2nc(-c3cccs3)oc2=O)CC1.O=C(O)CC(O)(CC(=O)O)C(=O)O` | -17.63% |
| 46 | `CNc1nc(CNC(=O)Nc2ccc([S+](C)[O-])c(F)c2)cs1` (stereo unspecified) | -10.28% |
| 47 | `CCCS(=O)(=O)N1CCCC(CCC(=O)N(C)CCc2ccccn2)C1` (stereo unspecified) | 7.302% |
| 48 | `O=C(O)C(F)(F)F.[H][C@@]12CCC(=O)N(c3ccccc3)[C@]1([H])CCN2C(=O)c1cccc(C)n1` | 13.45% |
| 49 | `C=Cc1ccc(C(=O)N2CCCC(Nc3ccc(F)cc3)C2)cc1` (stereo unspecified) | -13.29% |
| 50 | `CCS(=O)(=O)N1C[C@@H](O)[C@H](Oc2cccc(F)c2)C1` | 11.42% |
| 51 | `CO[C@H]1CCN(S(=O)(=O)c2cn(C)cn2)[C@H]1Cc1cnn(C)c1.O=C(O)C(F)(F)F` | -0.5411% |
| 52 | `CC(=O)Nc1cc(C(C)(C)C)sc1C#N` | 1.93% |
| 53 | `Cc1cn2nc(N3CCCC3Cn3nc(C)nc3C)sc2n1` (stereo unspecified) | 2.768% |
| 54 | `CCOC1COC2(CCN(Cc3ccc(F)cc3)CC2)C1.O=C(O)C(F)(F)F` (stereo unspecified) | 6.918% |
| 55 | `Cc1cccc(NC(=O)N2CCn3cnc(COCC4CC4)c3C2)c1` | 0.08953% |
| 56 | `O=C(c1nc(-c2ccc3cc[nH]c3c2)no1)N1CCCC1` | -12.5% |
| 57 | `CC(=O)N1CCN(C)CC(COCc2ccccc2)C1` (stereo unspecified) | -17.42% |
| 58 | `CCc1nc(CN2CCCC(N(C)Cc3cnc(C)s3)C2)no1` (stereo unspecified) | 0.1181% |
| 59 | `COc1ccc(-c2cnc(CN3CCCC3Cn3cccn3)o2)cc1` (stereo unspecified) | 17.76% |
| 60 | `Cc1cc(C(N)=O)nc(C2(C)CCCN2Cc2cnn(C)c2)n1` (stereo unspecified) | 2.278% |
| 61 | `CSC(C)C(=O)NCCCc1cc(N)n(-c2ccccc2)n1` (stereo unspecified) | -5.077% |
| 62 | `Cc1ccnn1CC(=O)Nc1cc(-c2ccncc2)[nH]n1` | -14.15% |
| 63 | `Cn1ccnc1CN1CC[C@@H](NS(C)(=O)=O)[C@@H]1Cc1ccccc1.O=C(O)C(F)(F)F` | 8.586% |
| 64 | `CCS(=O)(=O)N1C[C@@H](c2ccccc2)[C@@]2(CCNC2=O)C1` | 12.88% |
| 65 | `O=C(Nc1nc2c(s1)CN(S(=O)(=O)C1CC1)CC2)c1ccc(=O)[nH]c1` | -23.57% & -3.644% |
| 66 | `Cn1cc(CN2CC[C@@H](NS(C)(=O)=O)[C@@H]2Cc2cccnc2)cn1.O=C(O)C(F)(F)F.O=C(O)C(F)(F)F` | 6.902% |
| 67 | `O=C(O)C(F)(F)F.[H][C@@]12COC[C@]1(CNC(=O)c1ccsc1)CN(Cc1cnn(C)c1)C2` | 5.034% |
| 68 | `COc1cccc(OCC(=O)NS(=O)(=O)c2ccc(Br)s2)c1` | -7.495% |
| 69 | `Cc1nn(C)cc1C(=O)N1CCCC(n2cncn2)C1` (stereo unspecified) | 6.901% |
| 70 | `O=C(c1ccco1)N1CCC12CCN(c1ncc(F)cn1)CC2` | 4.991% |
| 71 | `N#Cc1c(N)nc2c(c1-c1c[nH]nc1C1CCCCC1)CC(N)CC2` (stereo unspecified) | 6.661% |
| 72 | `Brc1cccc(-c2noc(CN3CCOCC3)n2)c1` | -0.4553% |
| 73 | `CC(=O)Nc1ccc(S(=O)(=O)NC(=O)CCC2CCCO2)cc1` (stereo unspecified) | 9.6% |
| 74 | `Cc1cc(C)n(-c2cncc(NCCNC(=O)C(C)C)n2)n1` | -5.767% |
| 75 | `O=C(O)C(F)(F)F.[H][C@@]12CCN(Cc3ccsc3)C[C@]1([H])[C@H](C(=O)N1CCCC1)CCO2` | 5.069% |
| 76 | `Cn1cc(C(O)CNC(=O)Nc2cc(F)ccc2-n2cccn2)cn1` (stereo unspecified) | -15.21% |
| 77 | `CCCc1nc(C)c(C(=O)NCc2ccc(C)n2C)s1` | -3.657% |
| 78 | `COc1cc(N2CCCC(c3nccn3CCN(C)C)C2)nc(N)n1` (stereo unspecified) | -10.91% |
| 79 | `CN1CCN(Cc2cn3c(n2)CN(Cc2ccccn2)CC3)CC1` | 14.51% |
| 80 | `O=C(NCC1CCOC1)c1csc(Cc2ccccc2)n1` (stereo unspecified) | 6.217% |
| 81 | `CC(C)COC(=O)N1[C@@H](c2ccco2)[C@@H](CO)C[C@]12CCCCNC2=O` | -7.084% |
| 82 | `CN(C)CC(=O)NC1CC(C)(C)Cc2nc(C(C)(C)C)ncc21` (stereo unspecified) | -4.655% |
| 83 | `Cc1nn(C)c(C)c1NC(=O)CCn1ncc2c(C)cccc21` | -13.52% |
| 84 | `CC(C)NC(=O)N1CCN(CC2CC2)CC2(CC(=O)N(C)C2)C1.O=C(O)C(F)(F)F` (stereo unspecified) | -2.48% |
| 85 | `CCc1nnc(CN2CCN(C(=O)c3cc4ccccc4[nH]3)CC2)o1` | -12.49% |
| 86 | `CCc1nccn1C1CCCN(C(=O)c2cncnc2C)C1` (stereo unspecified) | 2.833% |
| 87 | `CC(C)NC(=O)CCN1CCCC1c1cccc2c1OCCO2` (stereo unspecified) | -23.77% |
| 88 | `COc1ccc2c(c1)NC(C1CCN(C(=O)C(C)C)CC1)NS2(=O)=O` (stereo unspecified) | 3.294% |
| 89 | `CNC(=O)c1cccc(C2CNCCN2C)c1` (stereo unspecified) | -1.54% |
| 90 | `COc1cc(OC)cc(C(=O)NCC(c2cccn2C)N2CCCC2)c1` (stereo unspecified) | 21.93% |
| 91 | `Cn1cc(CN2CC[C@H](O)[C@@H]2Cc2ccccc2)cn1.O=C(O)C(F)(F)F` | -16.75% |
| 92 | `O=C1CCC2(CCNCC2)CN1Cc1nncn1CCc1ccccc1` | -4.239% |
| 93 | `CCC(=O)N1CCC(c2ncncc2C)CC1` | 0.3836% |
| 94 | `c1ccc(-c2nnc3n2CCN(c2nc(C4CC4)ns2)C3)cc1` | 14.16% |
| 95 | `Cc1cc2ccncc2n1CC1(O)CCN(C(=O)c2ccccn2)CC1` | 6.982% |
| 96 | `Cc1nc(N(C)C)nc2c1COCC21CCN(C(=O)C2CC2)C1` (stereo unspecified) | 13.34% |
| 97 | `[H][C@]12CC[C@]([H])(CN(C(=O)N(C)C)C1)N(C(=O)CCCn1cncn1)C2` | -2.941% |
| 98 | `Cc1ccc(CN2CCc3onc(C(=O)Nc4cccnc4)c3C2)o1.O=C(O)C(F)(F)F.O=C(O)C(F)(F)F` | 8.99% |
| 99 | `O=C(O)C(F)(F)F.O=C(O)C(F)(F)F.O=C(O)C(F)(F)F.[H][C@@]12CN(Cc3nccs3)CCC[C@]1(C(=O)OCC)CN(CCN(C)C)C2` | -0.7821% |
| 100 | `O=C(CCN1CCCC1c1cccc(F)c1)N1CCc2sccc2C1` (stereo unspecified) | 1.03% |
| 101 | `CC(C(N)=O)N(C)CCCc1cc(-c2ccccc2)no1` (stereo unspecified) | -16.46% |
| 102 | `O=C(O)C(F)(F)F.O=C(O)C(F)(F)F.O=C1N(c2cncnc2)CCC12CCCN(Cc1cccnc1)C2` (stereo unspecified) | -5.826% |
| 103 | `O=C(CCc1ccco1)N1CCCC(n2cccn2)C1` (stereo unspecified) | -1.688% |
| 104 | `COCCC(=O)N1C[C@@H](c2ccc(F)c(F)c2)[C@@]2(CCCC(=O)N2)C1` | -1.808% |
| 105 | `CC(=O)c1cc(CC(=O)NCc2ccc(CN(C)C)cc2)cs1` | -6.471% |
| 106 | `NC(=O)C1CCC(NC(=O)COc2ccc(Cl)c(Cl)c2)CC1` (stereo unspecified) | -3.733% |
| 107 | `CN1CCN(C(=O)c2ccc(=O)n(C)c2)c2ccccc21` | -10.78% |
| 108 | `CCCNC(=O)NCc1nc(C)c(C)o1` | 11.24% |
| 109 | `[H][C@]12CC[C@]([H])(CN(Cc3cscn3)C1)N(C(=O)CSc1ccccn1)C2` | 7.588% |
| 110 | `CC(C)C(=O)Nc1ccc(Oc2ccc3c(c2)OCO3)nc1` | -25.18% |
| 111 | `Cc1ccccc1C1(C(=O)N2CCOC(C)C2)CCOCC1` (stereo unspecified) | -2.959% |
| 112 | `COc1cc(CNCCc2nc(C)cs2)cc2c1OCCO2.Cl` | 3.133% |
| 113 | `O=C(O)C(F)(F)F.O=C(O)C(F)(F)F.[H][C@@]12OCCN(Cc3ccsc3)[C@@]1([H])CC[C@H]2OCc1cccc(C)n1` | -14.61% |
| 114 | `CN(C)c1cc(CNC(=O)Nc2ccc(N3CCCC3)nc2)ccn1` | 6.871% |

Repeated from the top, 11 entries:

* O=C(Nc1ccc2c(c1)OCCO2)c1ccc(=O)[nH]n1 | 14.24%
* Cc1cc(=O)[nH]c(NC2CCN(S(=O)(=O)c3ccccc3)CC2)n1 | 2.473%
* O=C(CC1=CCCCC1)Nc1ncn(CC(=O)N2CCCCCC2)n1 | 7.444%
* N#Cc1ccc(F)c(CN2CCCC2Cn2cccn2)c1 (stereo unspecified) | -2.089%
* COCc1nc(C(=O)N2CCCC(n3ccnc3C)C2)cs1 (stereo unspecified) | 6.648%
* CN(C)C(=O)N1CCC(c2nc3ccc(-c4ccccc4)cn3n2)CC1 | 2.997%
* Cc1cc(C[C@@H]2COC[C@@H]2NC(=O)CN2CCCN(C)CC2)on1 | -4.841%
* O=C(O)C(F)(F)F.c1cnc(N2CCOC3(CCN(CC4CCOC4)CC3)C2)nc1 (stereo unspecified) | -3.342%
* COc1ccc(CN(Cc2cncn2C)CC2CCCO2)c(OC)c1.O=C(O)CC(O)(CC(=O)O)C(=O)O (stereo unspecified) | 2.488%
* Cc1noc(C)c1CN(C)C(=O)NCCOc1ccc(F)cc1F | -9.091%
* CC(CN1CCC2(CC1)c1nc[nH]c1CCN2S(C)(=O)=O)C(F)(F)F (stereo unspecified) | -10.97%